Reference: the supplement of paper PMC6078165
Values are relative to the signal before dosing, not to a vehicle control; the signal also falls without drug.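 Fibroblast labels name human fibroblasts: mostly primary ones from tissues such as uterus (C12385, HUF), lung (H6013), bone (Hs27A), adrenal (HADF) and skin (WS1), plus mammary HMF and breast cancer-associated Hs343T. The cancer cells are basal-like or mesenchymal-like triple-negative breast cancer lines. The paper calls a changed response a hit when it shifts by more than 3x the replicate standard deviation. The tissue of the other fibroblasts is not given here.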

Test system: MDAMB231
Test: relative JC-1 red fluorescence (viability) vs pre-drug, coculture with fibroblast (fraction); higher = more viable cancer cells
Experimental: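 JC-1 labelled TNBC cells cocultured 1:1 (1,500 cells each) with CellTrace Violet stained primary or stromal fibroblasts in 384-well plates in FluoroBrite medium, treated with one of 42 anticancer drugs at 0.1, 1, 10 or 100 uM. JC-1 red fluorescence (mitochondrial integrity in cancer cells only) was read by plate reader every 8 h for 72 h. Values are normalised to each well's pre-drug value. The stock of one drug was tenfold lower, so its dose labels may be too high.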

CS(=O)(=O)CCNCc1ccc(-c2ccc3ncnc(Nc4ccc(OCc5cccc(F)c5)c(Cl)c4)c3c2)o1 [Lapatinib]
relative JC-1 red fluorescence
Settings | 8 h | 16 h | 24 h | 32 h | 40 h | 48 h | 56 h | 64 h | 72 h
10 µM, coculture fibroblast: C12385 | 0.7693 | 0.818 | 0.654 | 0.859 | 0.877 | 0.88 | 0.869 | 0.8504 | 0.8485
10 µM, coculture fibroblast: H6013 | 0.8479 | 0.83711 | 0.833 | 0.8696 | 0.868 | 0.8155 | 0.862 | 0.8535 | 0.843
10 µM, coculture fibroblast: H6019 | 0.7999 | 0.815 | 0.7473 | 0.87044 | 0.8554 | 0.851 | 0.831 | 0.805 | 0.783
10 µM, coculture fibroblast: H6076 | 0.9746 | 0.9449 | 0.9469 | 0.9924 | 0.757 | 0.719 | 0.86 | 0.862 | 0.913
10 µM, coculture fibroblast: H6231 | 0.97792 | 0.945 | 0.916 | 0.902 | 0.897 | 0.883 | 0.862 | 0.834 | 0.819
10 µM, coculture fibroblast: HADF | 0.855 | 0.837 | 0.831 | 0.835 | 0.837 | 0.753 | 0.8051 | 0.8076 | 0.772
10 µM, coculture fibroblast: HCFa | 0.893 | 0.863 | 0.8818 | 0.916 | 0.939 | 0.894 | 0.929 | 0.781 | 0.806
10 µM, coculture fibroblast: HCPF | 0.78 | 0.872 | 0.844 | 0.83 | 0.816 | 0.815 | 0.932 | 0.913 | 0.894
10 µM, coculture fibroblast: HHSteC | 0.854 | 0.848 | 0.862 | 0.894 | 0.901 | 0.874 | 0.879 | 0.896 | 0.875
10 µM, coculture fibroblast: HMF | 0.794 | 0.839 | 0.964 | 0.953 | 0.952 | 0.948 | 0.93 | 0.905 | 0.893
10 µM, coculture fibroblast: HPFa | 0.908 | 0.906 | 0.881 | 0.899 | 0.947 | 0.921 | 0.931 | 0.934 | 0.9141
10 µM, coculture fibroblast: HUF | 0.844 | 0.806 | 0.805 | 0.792 | 0.751 | 0.756 | 0.802 | 0.72 | 0.803
10 µM, coculture fibroblast: Hs5 | 0.864 | 0.822 | 0.929 | 0.836 | 0.874 | 0.872 | 0.99641 | 0.99 | 0.939
10 µM, coculture fibroblast: Hs27A | 0.8714 | 0.832 | 0.812 | 0.813 | 0.788 | 0.693 | 0.765 | 0.766 | 0.764
10 µM, coculture fibroblast: Hs343T | 0.781 | 0.73 | 0.75 | 0.809 | 0.862 | 0.758 | 0.769 | 0.96 | 0.821
10 µM, coculture fibroblast: WS1 | 0.764 | 0.795 | 0.6686 | 0.852 | 0.9023 | 0.9237 | 0.9287 | 0.918 | 0.889
100 µM, coculture fibroblast: C12385 | 0.778 | 0.745 | 0.6986 | 0.717 | 0.68 | 0.666 | 0.636 | 0.635 | 0.615
100 µM, coculture fibroblast: H6013 | 0.919 | 0.878 | 0.845 | 0.824 | 0.806 | 0.789 | 0.803 | 0.783 | 0.742
100 µM, coculture fibroblast: H6019 | 0.803 | 0.75 | 0.718 | 0.689 | 0.65523 | 0.637 | 0.603 | 0.5938 | 0.556
100 µM, coculture fibroblast: H6076 | 0.913 | 0.872 | 0.862 | 0.837 | 0.812 | 0.779 | 0.755 | 0.74 | 0.734
100 µM, coculture fibroblast: H6231 | 0.954 | 0.877 | 0.835 | 0.785 | 0.739 | 0.705 | 0.66 | 0.635 | 0.614
100 µM, coculture fibroblast: HADF | 0.892 | 0.886 | 0.857 | 0.829 | 0.81 | 0.7514 | 0.761 | 0.744 | 0.7071
100 µM, coculture fibroblast: HCFa | 0.929 | 0.911 | 0.879 | 0.872 | 0.829 | 0.767 | 0.761 | 0.735 | 0.699
100 µM, coculture fibroblast: HCPF | 0.903 | 0.813 | 0.762 | 0.742 | 0.7 | 0.6566 | 0.625 | 0.596 | 0.565
100 µM, coculture fibroblast: HHSteC | 0.9152 | 0.8739 | 0.8338 | 0.801 | 0.77 | 0.732 | 0.696 | 0.665 | 0.63
100 µM, coculture fibroblast: HMF | 0.99212 | 0.937 | 0.917 | 0.899 | 0.88 | 0.847 | 0.818 | 0.805 | 0.782
100 µM, coculture fibroblast: HPFa | 0.9844 | 0.9509 | 0.901 | 0.859 | 0.837 | 0.795 | 0.748 | 0.723 | 0.674
100 µM, coculture fibroblast: HUF | 0.903 | 0.829 | 0.863 | 0.778 | 0.715 | 0.709 | 0.66 | 0.647 | 0.63
100 µM, coculture fibroblast: Hs5 | 0.931 | 0.866 | 0.82 | 0.77923 | 0.727 | 0.673 | 0.644 | 0.615 | 0.591
100 µM, coculture fibroblast: Hs27A | 0.928 | 0.888 | 0.863 | 0.853 | 0.817 | 0.729 | 0.769 | 0.75 | 0.706
100 µM, coculture fibroblast: Hs343T | 0.878 | 0.942 | 0.916 | 0.887 | 0.844 | 0.808 | 0.768 | 0.753 | 0.722
100 µM, coculture fibroblast: WS1 | 0.736 | 0.726 | 0.644 | 0.615 | 0.576 | 0.548 | 0.504 | 0.495 | 0.463
